Assay results: article PMC8221158, “Novel pyrrolizines bearing 3,4,5-trimethoxyphenyl moiety: design, synthesis, molecular docking, and biological evaluation as potential multi-target cytotoxic agents” (Journal of Enzyme Inhibition and Medicinal Chemistry, 2021)

Legend:
HCT116 = conditions: read-out: IC50 (µM ± SD) HCT116; cited from earlier work
A2780 = conditions: read-out: IC50 (µM ± SD) A2780; cited from earlier work
[1] = tested on: MCF-7, HCT116, and A2780 cancer cell lines; test: MTT assay, three cancer cell lines taken together (average, overall range); type: cell-based; conditions: Homo sapiens; MCF-7, HCT116, A2780; read-out: Average of the three IC50 values against the three cancer cell lines
Procedure: MCF-7 (human breast adenocarcinoma), A2780 (human ovarian cancer) and HCT116 (human colorectal carcinoma), and MRC-5 (normal foetal lung fibroblast) cell lines were bought from the ATCC and were cultured in flasks which were incubated at 37 °C in an atmosphere of 5% CO2, 95% air, and 100% relative humidity, to maintain continuous logarithmic growth. MCF-7, A2780, and HCT116 were maintained in RPMI-1640 media (100 U/mL penicillin, 100 µg/mL streptomycin, and 10% foetal bovine serum, Gibco, Carlsbad, CA). MRC-5 cells were maintained in EMEM (100 U/mL penicillin, 100 µg/mL streptomycin, and 10% foetal bovine serum, Gibco, Carlsbad, CA). […] Cells were used within 10–20 passages and were checked for mycoplasma every 6 months, by measuring the bioluminescence (Myco Alert sample detection kit; Lonza, Basel, Switzerland) using the multiplate reader (Synergy HT, BioTek, Winooski, VT).
The MTT assay was used to measure the cytotoxicity and growth inhibitory activities and cytotoxicity of the new compounds according to our previous report[13]^,[17]. […] Cytotoxicity of the new compounds was calculated after treatment of cancer/normal cell lines for 72 h. The absorbance of the reduced MTT was determined using a microplate reader A570 nm.
The cytotoxic activity of the new compounds (15a–e, 16a–e, 20, and 21) was evaluated in vitro using MTT assay. […]

MCF-7 = conditions: read-out: IC50 (µM ± SD) MCF-7; cited from earlier work

Compound: COc1cc2c(c(OC)c1OC)-c1ccc(OC)c(=O)cc1[C@@H](NC(C)=O)CC2 [Colchicine]
- IC50 (HCT116): 0.05 ± 0.005 µM
- IC50 (A2780): 0.015 ± 0.002 µM
- IC50 [1]: 26 nM
- IC50 (MCF-7): 0.012 ± 0.007 µM
